# Data from PubChem BioAssay AID540355 (National Center for Advancing Translational Sciences (NCATS), 2011).
# This list was built around the results that the source calls inconclusive (neither active nor inactive); the mix of calls is not that of the screen. Potencies beside an inconclusive call are fits to weak or partial responses and may not hold up. The source made the active and inactive calls. Calls follow the shape of the dose curve; as a rule, active = well fitted inhibition curve with a large enough effect; inconclusive = small, poorly fitted or top-dose-only effect; inactive = no such curve, though single readings can be large or run the other way.
# Target: 4'-phosphopantetheinyl transferase Sfp (Bacillus subtilis (strain 168)) (UniProt P39135)
# Assay: Gel-Based Assay for Inhibitos of Bacillus subtilis Sfp phosphopantetheinyl transferase (PPTase): Chemistry Optimization Followup
# Conditions: purified Sfp PPTase, gel-based product detection; series mostly up to 250 µM; activity change, negative = inhibition: at the top concentration
# Source text: The covalent attachment of a phosphopantetheinyl (4'-PP) arm to a variety of synthases and other proteins is a key posttranslational protein modification. The 4'-PP is installed on the proteins post-translationally from coenzyme A (CoA) on a conserved serine residue by action of phosphopantetheinyl transferase (PPTase) enzymes. Phosphopantetheinylation is essential for synthase activity, and removal of the PPTase gene precludes natural product synthesis in microorganisms, or in the case of fatty acid biosynthesis, renders the organism unviable. PPTase enzymes belong to a distinct structural superfamily. Within bacteria, these enzymes are grouped into two classes based upon primary structure, the AcpS-Type and Sfp-Type PPTases.
# Sfp-type PPTases, corresponding to an activator of surfactin production in Bacillus subtilis, are responsible for modifying type I polyketide and nonribosomal peptide synthases of prokaryotes. Sfp-type PPTases are responsible for the activation of a variety of pathogen-associated virulence factors. Among these compounds are toxins such as mycolactone from Mycobacterium ulcerans, siderophores such as vibriobactin from Vibrio cholerae or mycobactin from Mycobacterium tuberculosis, as well as the mycolic acids which form the waxy cell wall of Mycobacteria. The biosyntheses of these natural products are considered attractive targets for drug design.
# In this assay, compounds were evaluated by monitoring of fluorescence transfer to whole carrier protein substrates via polyacrylamide gel electrophoresis. See Yasgar, et al. (PMID: 20094656) for further details on assay. This assay was used to evaluate follow-up compounds from the primary screen (AID: 1490).
# NIH Chemical Genomics Center [NCGC]
# NIH Molecular Libraries Probe Centers Network [MLPCN]
# Assay Submitter (PI): Michael Burkart, University of California, San Diego
# A DMSO solution of confirmed hits (0.5 microL) was added to a 1.33X enzyme solution (15 microL, containing 26.6 nM Sfp, 66 mM HEPES, 13.3 mM MgCl2, 0.0133% NP-40, 0.133% BSA, pH 7.6). After a 10 minute incubation, the enzymatic reaction was initiated by the addition of 4 X substrate solution (4 microL, containing 50 microM Rhodamine CoA and 50 microM apo-Actinorhodin-ACP). The reactions were terminated after a 30 minute incubation at room temperature by the addition of 2X quench solution (20 microL, containing 4 M Urea, 25 mM EDTA, 0.004% phenol red, pH 8.0). Samples were separated under native conditions on a 20% polyacrylamide gel using standard Laemmli conditions. Following the run, gels were imaged with a Chemi-Doc Plus imager (Bio-Rad, Hercules, CA) and band intensity quantified using the ImageJ software package. Pixel density values were normalized to control wells (SCH202676) and fit with the 4-parameter Hill equation using in-house tools.
SMILES,Potency,"activity change, negative = inhibition"
COc1cccc(NC(=S)N2CCN(c3cccc(Cl)c3Cl)CC2)n1,"inconclusive: 3.98 µM [inhibitor, full curve]",–
Cc1ccnc(NC(=S)N2CCNCC2)c1,–,inactive: -51.6%
Cc1cc(C)nc(NC(=S)N2CCN(c3noc4ccccc34)CC2)c1,–,inactive: -66.8%
COc1cccc(NC(=S)N2CCN(c3cccc(C(F)(F)F)n3)CC2)n1,–,inactive: 4.45%
Cc1cc(C)nc(/N=C(\NC#N)N2CCN(c3cccc(C(F)(F)F)c3)CC2)c1,"inconclusive: 0.316 µM [inhibitor, full curve, poor fit]",–
FC(F)(F)c1cccc(N2CCN(C(=S)Nc3cc(C(F)(F)F)ccn3)CC2)c1,"inconclusive: 13.5 µM [inhibitor, full curve, poor fit]",–
Cc1cc(C)nc(Nc2nnc(N3CCN(c4cccc(C(F)(F)F)c4)CC3)s2)c1,–,inactive: -20.1%
COc1ccnc(NC(=S)N2CCN(c3cccc(Cl)c3Cl)CC2)c1,active: 7.94 µM,–
COc1ccnc(NC(=S)N2CCN(c3cccc(C(F)(F)F)n3)CC2)c1,"inconclusive: 12.6 µM [inhibitor, partial curve]",–
Cc1ccnc(NC(=S)N2CCc3ccccc3C2)c1,active: 3.16 µM,–
FC(F)(F)c1cnc(N2CCN(C(=S)Nc3cc(Cl)ccn3)CC2)c(Cl)c1,"inconclusive: 50.1 µM [inhibitor, partial curve]",–
Cc1cc(C)nc(NC(=S)N2CCN(C3=Nc4ccccc4Oc4ccccc43)CC2)c1,"inconclusive: 3.98 µM [inhibitor, full curve, poor fit]",–
Cc1ccnc(NC(=S)N2CCN(c3cccc(C(F)(F)F)c3)C[C@@H]2C)c1,"inconclusive: 7.94 µM [inhibitor, full curve]",–
Cc1cc(C)nc(NC(=S)N2CCN(Cc3cccc(C(F)(F)F)c3)CC2)c1,"inconclusive: 10 µM [inhibitor, full curve, poor fit]",–
Cc1ccnc(NC(=S)N2CCN(c3cccc(N(C)C)c3)CC2)c1,active: 1.26 µM,–
FC(F)(F)c1cccc(N2CCN(C(=S)Nc3ncnc4ccccc34)CC2)c1,"inconclusive: 50.1 µM [inhibitor, partial curve]",–
Cc1cc(C)nc(NC(=S)N2CCN(c3ncccc3Cl)CC2)c1,"inconclusive: 12.6 µM [inhibitor, partial curve]",–
Cc1ccnc(NC(=S)N2CCN(c3cccc(C(F)(F)F)c3)C2)c1,"inconclusive: 39.8 µM [inhibitor, partial curve]",–
CCN1CCN(C(=S)c2ccc(O)cc2)CC1,"inconclusive: 31.6 µM [inhibitor, partial curve]",–
S=C(Nc1cc(Cl)ccn1)N1CCN(c2cc(Cl)cc(Cl)c2)CC1,–,inactive: -58.6%

# Looked up above.
# Under Potency, CCN1CCN(C(=S)c2ccc(O)cc2)CC1 has the entry inconclusive: 31.6 µM [inhibitor, partial curve]
# Under Potency, Cc1cc(C)nc(/N=C(\NC#N)N2CCN(c3cccc(C(F)(F)F)c3)CC2)c1 has the entry inconclusive: 0.316 µM [inhibitor, full curve, poor fit]
# Under Potency, FC(F)(F)c1cnc(N2CCN(C(=S)Nc3cc(Cl)ccn3)CC2)c(Cl)c1 has the entry inconclusive: 50.1 µM [inhibitor, partial curve]

# Further structures:

SMILES,Potency,"activity change, negative = inhibition"
Cc1ccnc(NC(=S)N2CCN(c3ccc(Cl)c(Cl)c3)CC2)c1,–,inactive: -63.4%
FC(F)(F)c1cccc(N2CCN(C(=S)Nc3ccncc3)CC2)c1,–,inactive: 5.42%
Cc1cc(C)nc(NC(=S)N2CCN(c3ncccc3C#N)CC2)c1,"inconclusive: 39.8 µM [inhibitor, partial curve, poor fit]",–
Cc1cc(C)nc(NC(=S)N2CCN(c3ccncc3)CC2)c1,–,inactive: -6.17%
Cc1ccnc(NC(=S)NC2CCN(c3cccc(C(F)(F)F)c3)CC2)c1,"inconclusive: 0.398 µM [inhibitor, full curve, poor fit]",–
Cc1ccc(N2CCN(C(=S)Nc3cc(C)ccn3)CC2)cc1,active: 3.16 µM,–
Cc1cc(C)nc(NC(=S)N2CCN(c3cc(C(F)(F)F)cc(C(F)(F)F)c3)CC2)c1,"inconclusive: 0.199 µM [inhibitor, full curve, poor fit]",–
Cc1ccnc(C(=S)N2CCN(c3cccc(C(F)(F)F)c3)CC2)c1,–,inactive: 6.19%
Cc1cc(C)nc(NC(=S)N2CCN(c3ccc(Cl)cc3F)CC2)c1,"inconclusive: 10 µM [inhibitor, full curve, poor fit]",–
Cc1ccnc(N(C)C(=S)N2CCN(c3cccc(C(F)(F)F)c3)CC2)c1,"inconclusive: 3.16 µM [inhibitor, full curve]",–
COc1cccc(NC(=S)N2CCN(c3cccc(C(F)(F)F)c3)CC2)n1,active: 20 µM,–
Cc1cncc(NC(=S)N2CCN(c3cccc(C(F)(F)F)c3)CC2)c1,"inconclusive: 158 µM [inhibitor, partial curve, poor fit]",–
COc1cccc(NC(=S)N2CCN(c3cc(Cl)cc(Cl)c3)CC2)n1,"inconclusive: 0.214 µM [inhibitor, full curve, poor fit]",–
S=C(Nc1cc(Cl)ccn1)N1CCN(c2ccc3ccccc3n2)CC1,"inconclusive: 25.1 µM [inhibitor, partial curve]",–
Cc1cc(C)nc(NC(=S)N2CCN(Cc3cccc4ccccc34)CC2)c1,active: 10 µM,–
COc1ccnc(NC(=S)N2CCN(c3ccc(Cl)cc3Cl)CC2)c1,active: 7.94 µM,–
Cc1cc(C)nc(NC(=S)N2CCN(c3ccc4cn(C)nc4c3)CC2)c1,–,inactive: -68.5%
FC(F)(F)c1cccc(N2CCN(C(=S)Nc3cccnc3)CC2)c1,–,inactive: -56.7%
COc1ccc(N2CCN(C(=S)Nc3cc(C)ccn3)CC2)cc1,–,inactive: -33.2%
Cc1ccnc(NC(=O)N2CCN(c3cccc(C(F)(F)F)c3)CC2)c1,–,inactive: -5.14%
